# This is one part of the list.
# Tested on: T1, CTL2-GFP (C. trachomatis L2/434/Bu, GFP-expressing)
# T1 construct: L2/434/Bu, GFP-expressing
# Design: species or system HeLa; Intracellular C. trachomatis growth in HeLa cells, bulk GFP fluorescence relative to DMSO
# Details: 28.5 h, 10 µM; inhibitor
row,Compound,% of control remaining
1,CC(N)c1cc2ccccc2o1 (stereo not shown) [CBK001492C],97.0491%
2,COC(=O)c1nn(Cc2ccc(OC)cc2)c2ccccc12 [CBK093526],126.676%
3,O=C(O)c1nn(Cc2ccc(Cl)c(Cl)c2)c2ccccc12 [CBK088455],100%
4,O=C(O)CP(=O)(O)c1ccc(Cl)cc1 [CBK019291],113.513%
5,Cc1cn(-c2ccc(OC(=O)NC(C)(C)C)c(Cl)c2)c(=O)n1C [CBK025991],111.921%
6,O=C(NNc1c(Cl)cccc1Cl)C(O)(c1ccccc1)c1ccccc1 [CBK262739],68.2881%
7,O=[N+]([O-])c1ccc(Cl)cc1CN1CCN(c2ccccc2)CC1 [CBK261556],100%
8,COc1cc(C(=O)Nc2ccc3c(c2)COC2(CCN(C(=O)OC(C)(C)C)CC2)O3)cc(OC)c1OC [CBK091527],100%
9,O=C(NCCCn1ccnc1)c1cc([N+](=O)[O-])cc([N+](=O)[O-])c1 [CBK261773],68.9833%
10,CNC(=O)Oc1ccc(C2(C)SCCS2)cc1 [CBK023078],90.7167%
11,CN(C)[C@H]1CCC[C@@H]1C(=O)Nc1ccc(Cl)c(Cl)c1 [CBK003406],51.8308%
12,COc1ccc(CCn2nc(C(=O)O)c3ccccc32)cc1 [CBK093525],149.351%
13,CCCCN1C(=O)C(O)(c2c(C)nn(CCC#N)c2N)c2ccccc21 (stereo not shown) [CBK306211],102.297%
14,Clc1cccc(N2CCNCC2)n1 [CBK001379],123.249%
15,CCOc1ccc(N2C(=O)/C(=C/c3ccc(Br)cc3)C(=O)NC2=S)cc1 [CBK263305],100%
16,Cc1cc(/C=C2\C(=O)NC(=O)N(Cc3ccccc3Cl)C2=O)c(C)n1-c1ccc(C(=O)O)cc1 [CBK265602],100%
17,Cc1cc(/C=C2\C(=O)NC(=O)N(C)C2=O)c(C)n1-c1ccc(Oc2ccc([N+](=O)[O-])cn2)cc1 [CBK264294],100%
18,CCCN(CCc1cccnc1)C1Cc2cc(OC)c(OC)cc2C1 [CBK023935C],137.172%
19,NS(=O)(=O)c1ccc(N/C=C2\C(=O)NC(=O)N(Cc3ccccc3Cl)C2=O)cc1 [CBK265586],100%
20,O=C(O)C(O)(c1ccccc1)c1cccs1 (stereo not shown) [CBK022808],109.868%
21,CC1CN(C(=O)Oc2ccccc2)C(C)CN1CCCC(c1ccc(F)cc1)c1ccc(F)cc1 (stereo not shown) [CBK024993C],78.4487%
22,COc1cc(/C=N/O)ccc1Oc1ccc([N+](=O)[O-])cc1[N+](=O)[O-] [CBK261651],120.032%

# Filtered by structure: those above containing a tert-butyl group
row,Compound,% of control remaining
5,Cc1cn(-c2ccc(OC(=O)NC(C)(C)C)c(Cl)c2)c(=O)n1C [CBK025991],111.921%
8,COc1cc(C(=O)Nc2ccc3c(c2)COC2(CCN(C(=O)OC(C)(C)C)CC2)O3)cc(OC)c1OC [CBK091527],100%

# From publication PMC12040169 (PLOS Biology, 2025)
